The values that follow come from patent US20030235857A1 (WHITEHEAD INSTITUTE FOR BIOMEDICAL RESEARCH A DELAWARE, published 2003).

Chains of the proteins cited; added tags and fusions are not shown. Lines headed by an entry give the natural chain unless they say otherwise; changes in a name come on top.
UniProt P04386: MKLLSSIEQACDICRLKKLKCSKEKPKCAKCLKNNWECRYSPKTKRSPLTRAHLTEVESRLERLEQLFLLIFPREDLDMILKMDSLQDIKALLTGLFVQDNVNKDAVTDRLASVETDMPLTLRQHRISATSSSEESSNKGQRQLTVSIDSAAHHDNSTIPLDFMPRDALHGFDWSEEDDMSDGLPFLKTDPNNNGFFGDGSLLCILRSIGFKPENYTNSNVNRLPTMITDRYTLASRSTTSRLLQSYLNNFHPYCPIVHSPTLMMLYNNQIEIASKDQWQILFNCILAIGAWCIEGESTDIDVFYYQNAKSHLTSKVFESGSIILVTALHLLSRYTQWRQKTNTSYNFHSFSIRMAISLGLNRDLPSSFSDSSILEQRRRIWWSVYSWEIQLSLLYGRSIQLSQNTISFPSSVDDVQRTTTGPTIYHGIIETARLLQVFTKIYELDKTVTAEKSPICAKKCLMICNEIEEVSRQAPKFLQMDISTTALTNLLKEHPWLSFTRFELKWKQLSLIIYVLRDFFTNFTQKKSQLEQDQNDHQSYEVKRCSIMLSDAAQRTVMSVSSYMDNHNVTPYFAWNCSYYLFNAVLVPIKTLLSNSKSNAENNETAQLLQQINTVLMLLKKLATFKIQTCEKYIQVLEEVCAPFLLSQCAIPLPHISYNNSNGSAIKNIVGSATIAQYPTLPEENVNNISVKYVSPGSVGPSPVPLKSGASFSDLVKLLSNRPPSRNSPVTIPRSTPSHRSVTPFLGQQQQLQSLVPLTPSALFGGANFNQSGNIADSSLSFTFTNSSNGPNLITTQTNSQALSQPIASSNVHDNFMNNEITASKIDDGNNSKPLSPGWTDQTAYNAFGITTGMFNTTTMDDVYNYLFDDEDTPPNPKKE
UniProt P06245: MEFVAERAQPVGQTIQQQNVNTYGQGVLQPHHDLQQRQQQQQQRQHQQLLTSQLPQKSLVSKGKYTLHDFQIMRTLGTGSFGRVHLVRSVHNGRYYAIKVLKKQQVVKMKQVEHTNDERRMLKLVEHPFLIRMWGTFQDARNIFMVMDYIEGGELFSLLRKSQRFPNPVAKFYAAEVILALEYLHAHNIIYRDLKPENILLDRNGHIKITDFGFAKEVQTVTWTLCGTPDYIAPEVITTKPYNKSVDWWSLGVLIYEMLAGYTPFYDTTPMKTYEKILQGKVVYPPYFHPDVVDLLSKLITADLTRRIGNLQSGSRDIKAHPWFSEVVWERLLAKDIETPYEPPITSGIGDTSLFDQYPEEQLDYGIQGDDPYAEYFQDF
UniProt P06244: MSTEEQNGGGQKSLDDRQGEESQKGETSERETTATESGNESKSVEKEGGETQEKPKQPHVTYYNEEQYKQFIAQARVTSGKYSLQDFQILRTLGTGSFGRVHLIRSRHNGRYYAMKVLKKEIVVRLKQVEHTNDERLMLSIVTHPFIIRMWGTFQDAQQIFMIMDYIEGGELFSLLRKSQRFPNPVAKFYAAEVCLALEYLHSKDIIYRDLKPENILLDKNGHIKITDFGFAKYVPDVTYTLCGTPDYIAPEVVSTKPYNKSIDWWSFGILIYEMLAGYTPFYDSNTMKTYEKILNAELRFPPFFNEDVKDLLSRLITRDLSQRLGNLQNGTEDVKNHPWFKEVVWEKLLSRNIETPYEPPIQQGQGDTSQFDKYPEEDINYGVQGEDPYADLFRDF
UniProt P05986: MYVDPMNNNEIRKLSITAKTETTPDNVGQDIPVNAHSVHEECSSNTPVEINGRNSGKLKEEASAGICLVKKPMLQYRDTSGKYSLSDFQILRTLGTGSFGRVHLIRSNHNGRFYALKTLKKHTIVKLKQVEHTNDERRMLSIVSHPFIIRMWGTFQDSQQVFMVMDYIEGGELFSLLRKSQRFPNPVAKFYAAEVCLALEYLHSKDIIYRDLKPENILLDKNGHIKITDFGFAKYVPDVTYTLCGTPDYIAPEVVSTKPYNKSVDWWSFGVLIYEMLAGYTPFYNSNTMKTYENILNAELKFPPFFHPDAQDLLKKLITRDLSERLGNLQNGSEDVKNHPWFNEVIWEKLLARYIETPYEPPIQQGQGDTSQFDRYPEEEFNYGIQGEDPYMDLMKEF

For test [1], the target named is T1, Gal4 DNA binding domain:Tpk2 fusion (Saccharomyces cerevisiae) (UniProt P04386+P06245). Nature of the test: yeast two-hybrid, yeast growth indicates an interaction.
Test [2] deals with T1, Gal4 DNA binding domain:Tpk2 fusion (Saccharomyces cerevisiae). As to the kind of experiment: yeast two-hybrid, GAL4-ADE2 reporter, growth without adenine.
Test [3] addresses Tpk1 fused to the Gal4 DNA binding domain (Saccharomyces cerevisiae) (UniProt P04386+P06244). The test is described as above.
Test [4] concerns the target Tpk3 fused to the Gal4 DNA binding domain (Saccharomyces cerevisiae) (UniProt P04386+P05986). The description is as above.

Results are given in words; binding and its absence hold for the method and conditions named. Some binding calls cover weakened binding; strength is not graded here. Tags and fused reporters may be left off the sequences shown.

B1: Sfl1 fused to the Gal4 activation domain (protein, Saccharomyces cerevisiae, UniProt P20134 1-766, looked up, not shown: large carriers)
chain: MSEEETVSAPAPASTPAPAGTDVGSGGAAAGIANAGAEGGDGAEDVKKHGSKMLVGPRPPQNAIFIHKLYQILEDESLHDLIWWTPSGLSFMIKPVERFSKALATYFKHTNITSFVRQLNIYGFHKVSHDHSSNDANSGDDANTNDDSNTHDDNSGNKNSSGDENTGGGVQEKEKSNPTKIWEFKHSSGIFKKGDIEGLKHIKRRASSRNNSSINSRKNSSNQNYDIDSGARVRPSSIQDPSTSSNSFGNFVPQIPGANNSIPEYFNNSHVTYENANHAPLESNNPEMQEQNRPPNFQDETLKHLKEINFDMVKIIESMQHFISLQHSFCSQSFTFKNVSKKKSENIVKDHQKQLQAFESDMLTFKQHVMSRAHRTIDSLCAVNAAATAASVAPAPAPTSTSAYAPKSQYEMMVPPGNQYVPQKSSSTTNIPSRFNTASVPPSQLFVQYQPQSQQHVTYAKQPAHVPNFINQPIPIQQLPPQYADTFSTPQMMHNPFASKNNNKPGNTKRTNSVLMDPLTPAASVGVQGPLNYPIMNINPSVRDYNKPVPQNMAPSPIYPINEPTTRLYSQPKMRSLGSTSSLPNDRRNSPLKLTPRSSLNEDSLYPKPRNSLKSSISGTSLSSSFTLVANNPAPIRYSQQGLLRSLNKAANCAPDSVTPLDSSVLTGPPPKNMDNLPAVSSNLINSPMNVEHSSSLSQAEPAPQIELPQPSLPTTSTTKNTGEADNSKRKGSGVYSLLNQEDSSTSSADPKTEDKAAPALKKVKM
Take B1: the binding result in test [1] and in test [2] was “binds” in each case.

B2: Mga1 fused to the Gal4 activation domain (other, Saccharomyces cerevisiae, UniProt P53050 1-456, looked up, not shown: large carriers)
chain: MQPKTFVHQLHAILLEPEVNKWIYWSPTDNTVFFLKPYDPNFSTHVLKRYFKHGNVNSFVRQLHMYGFHKLSHPSPDQSSANNGNVKELVEWKFTHPSGFFFKEANAGILNKIQRKSTGVGKDGKRKNILSPISVSYVDASRLNVLSQQSGPVSAREPSNMFMGSPVHYSTSQSPPHISIPQQQQSSGPYLISSLPPQQPTVNMMRRQSISARMMNSYDYPNQFSTQDSIVQPQQPQQVLSPQALSGPPMKKSGTLSSTDDLKTTSLPIVNYPMPYHPGAFAQQQQQQQQPLPTVPPYSSYSTPFPSMMNSLSNSASNSPALGVCNNNVTLPKKSNISERQALDNHIQTLKNSLSTITDLIEKHINSASQDENKTLTNDAMNKDLRTSLSLLQNSKEEIIQLESKWMSMQSVKTTALPLQETTNTSSTLTSLTSSIIPKSIPIITKGEVATKPASY
notes: also called YGR249w
On to B2, for which the binding result in test [1] and in test [2] was “binds” each time.

B3: Bcy1, the negative regulatory subunit of PKA, fused to the Gal4 activation domain (protein, Saccharomyces cerevisiae, UniProt P07278 1-416, looked up, not shown: large carriers)
chain: MVSSLPKESQAELQLFQNEINAANPSDFLQFSANYFNKRLEQQRAFLKAREPEFKAKNIVLFPEPEESFSRPQSAQSQSRSRSSVMFKSPFVNEDPHSNVFKSGFNLDPHEQDTHQQAQEEQQHTREKTSTPPLPMHFNAQRRTSVSGETLQPNNFDDWTPDHYKEKSEQQLQRLEKSIRNNFLFNKLDSDSKRLVINCLEEKSVPKGATIIKQGDQGDYFYVVEKGTVDFYVNDNKVNSSGPGSSFGELALMYNSPRAATVVATSDCLLWALDRLTFRKILLGSSFKKRLMYDDLLKSMPVLKSLTTYDRAKLADALDTKIYQPGETIIREGDQGENFYLIEYGAVDVSKKGQGVINKLKDHDYFGEVALLNDLPRQATVTATKRTKVATLGKSGFQRLLGPAVDVLKLNDPTRH
Consider B3, for which the binding result in test [2], in test [3] and in test [4] was “binds” each time.
